Data: the supplement of paper PMC3334620
In all, about 33,000 sequences were measured (“E-score (-0.5 to 0.5)”: median about -0.0059, highest 2% from about 0.26 on). Some of the results follow.

molecular target: T1, Cin5 (UniProt P40917); experiment: PBM E-score (8-mer binding enrichment) (E-score (-0.5 to 0.5)); higher = stronger / more preferred TF binding; settings: protein concentration: 100 nM; construct: GST-full length
T1 sequence: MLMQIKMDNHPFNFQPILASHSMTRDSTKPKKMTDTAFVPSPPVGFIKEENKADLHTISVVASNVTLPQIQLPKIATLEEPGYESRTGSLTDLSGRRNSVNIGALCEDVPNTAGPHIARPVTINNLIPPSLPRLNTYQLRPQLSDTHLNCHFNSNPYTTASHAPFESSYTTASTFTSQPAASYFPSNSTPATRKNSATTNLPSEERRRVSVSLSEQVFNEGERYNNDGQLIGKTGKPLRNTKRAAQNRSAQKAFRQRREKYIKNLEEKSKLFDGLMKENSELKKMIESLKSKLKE
Method in brief: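 The E-score, a modified Wilcoxon-Mann-Whitney statistic, was computed by the Universal PBM Analysis Suite for every ungapped eight-base word pooled with its reverse complement. Scans behind it were normalised with masliner after bound GST-tagged yeast transcription factors were detected with fluorescent anti-GST. The proteins, at about 100-200 nM, had been applied to universal all-10-mer Agilent arrays made double-stranded by primer extension.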

Sequence | PBM E-score
ACTGCGAC | -0.0354
CACCTGCC | 0.045
AGATGTAT | 0.189
ACAGAATC | -0.0255
AAAGGAGT | 0.0979
ACCTGGTG | -0.185
GGTCCAAC | -0.147
AATCGCGG | 0.0556
GATGTACA | 0.116
GACTGAAC | -0.179
CGTCAGGA | -0.106
ATCGAGGC | -0.0936
CAACGATG | -0.0341
GATGACAC | 0.0142
ACGCCCGC | -0.11
AACTTTCG | 0.0692
AATGGATA | 0.0623
AGGAAAAG | 0.0753
GTCTGTCA | 0.0444
CCCTCTGA | -0.231
GTTCAGCA | -0.042
CATCGTCA | 0.0263
GTGGGCCA | -0.142
ACTGTTAA | -0.0114
CTCTAGAG | -0.0707

Sequence | PBM E-score
AATCTGCG | 0.117
AACAGTAA | 0.164
ACTAGAGT | -0.0346
AAAAAGTA | 0.129
CCCTTTAC | 0.0116
ACAGCTCT | -0.28
ACCGCGGT | 0.00914
ATATATCC | 0.224
CCCTTCCG | -0.185
AGGTAGAT | -0.0424
CATTAGGA | -0.0329
GGGTGGAA | 0.0356
GGTCGTAC | -0.0451
GAAGACTC | -0.229
TATTAAAA | 0.205
GTGCTGAA | -0.0928
GTCCCGAC | -0.103
ACCGACGA | -0.137
CTATCCTC | -0.0993
ATATCGGC | 0.0633
TACCAGTA | 0.0926
GGAAGTAC | 0.0641
GACGTCGC | -0.165
CATGGGCC | -0.113
CAAGGTTC | -0.222

Sequence | PBM E-score
CCCAACTC | 0.158
AAAACCTT | -0.188
GACAAGAA | 0.17
AAAAGATG | 0.123
CAGAACCA | -0.0997
CCGAGATC | 0.0873
GATCGTAA | 0.116
CGCCAGAG | -0.206
CTGCAAAA | 0.0428
AACGCGAT | 0.0765
ATTAGAAT | 0.108
ACGCATTG | -0.0579
ATTACAGC | -0.125
ACAACTCG | 0.113
ATCGAACC | 0.0747
ACAGTACC | -0.0968
CAGGCATC | -0.115
CCAAAAGC | -0.0692
AGCATACC | 0.0457
AGGATTAT | -0.0477
GCCTTATA | -0.0112
AATGATCT | 0.118
CGGATGGA | 0.0569
CCTTATAA | 0.122
CGTCAAAG | -0.0995

Sequence | PBM E-score
TCAGCGGA | 0.104
CATTCATC | 0.119
CGAAAACG | -0.0579
GTGTGGGA | 0.0452
AATATGTG | 0.197
CACAGTCA | -0.0863
ACGTACCC | -0.00949
CGTTTCAG | 0.0885
AGCATGAG | 0.0254
CATTTACC | 0.0667
CGAGTATC | -0.108
GCGCCAGC | -0.297
ACAGGGGG | -0.407
AAATGGAT | 0.111
CAACCAGC | -0.0666
ATCCCGGA | 0.154
GGCTGATA | 0.0385
AGGAGCGC | -0.165
ACGAGCGG | -0.0674
GTACGGAC | 0.0359
GAATTACC | 0.00886
GGCTGCCC | -0.243
ATTTCTCG | 0.313
ATCGTGGC | -0.0613
TGCAAAAA | 0.0983

Sequence | PBM E-score
GGGGATTA | 0.253
CCGGTTGA | -0.0617
AATAGCAT | 0.174
AGCTCTGA | -0.219
AGACGACC | -0.0757
AAAGAAAG | 0.0167
AATTCTCA | 0.0439
AGCGACCT | -0.194
GCTAGTCC | -0.226
CGATGCGA | 0.0284
GAAACAAA | 0.21
CTAGCTAG | 0.041
AGGTGGAG | -0.239
AACCAGGT | -0.181
ACTTTCGC | -0.0059
AGGGCCGC | -0.324
AACCGCGC | 0.241
GAAGTTCA | 0.0618
CGAGATAC | 0.15
GTGGTCAA | 0.0229
GAAATACA | 0.108
AAGAAGAG | 0.0193
AGTCCACC | 0.0743
AGTGGGCA | 0.0507
CTCTGGGA | -0.31

Sequence | PBM E-score
CGTGTCTA | 0.0403
GCGTGGAC | -0.251
ACCATGGA | -0.247
TGTACTAA | 0.0762
GCGACGCA | -0.137
ACGCGAAC | 0.0266
CGGGCTAC | -0.192
AGCTTTTA | 0.0832
CTAACTGA | 0.0445
GATCAATA | 0.131
CGTCCACG | -0.229
ATAATTCG | 0.171
CAAGTAGC | -0.0646
CTCAGCTA | -0.124
AGAAACTA | -0.065
TATGAGAA | 0.214
AGGAACAT | -0.0926
CGGTGCAA | -0.107
TGCCGCAA | 0.00929
ACCAAGTC | 0.0933
CTCACCAG | 0.0111
CCCCGACA | -0.0722
AATTCCGT | 0.228
ACGTACCT | -0.23
CCTCACGC | 0.0561

Quoted at random: 2 records from the list.
Sequence | PBM E-score
CAGGCATC | -0.115
AGGAACAT | -0.0926

Next part.

Sequence | PBM E-score
CAATTCAC | 0.158
TGAGCACA | 0.0892
ACGCATGA | 0.0604
CGGGCCGC | -0.0901
AGCAGGCG | -0.0847
GACGTTGA | 0.168
GCACAGGC | -0.0964
CAGACGGC | -0.114
TACAAAAA | 0.232
AACATTAG | -0.0325
CGTCACAC | -0.0397
CAGCAGGG | -0.147
CCCTCCAC | -0.0933
GATATCCA | 0.183
ATCAAAAA | 0.239
CGTGACTC | -0.283
ATAAGACG | 0.0211
TATCCTGA | 0.1
ACCGCGCG | 0.241
ACATCTCA | 0.128
ATTACCAG | 0.18
ACGGGTCC | -0.245
TTCTAGAA | -0.0837
ACAACTGG | -0.0556
GGCAATTA | 0.0819

Part of the list above, reformatted:
Sequence	PBM E-score
GGCTGATA	0.0385
GGCTGCCC	-0.243

Given comma-delimited: entries from further up
Sequence,PBM E-score
CAGACGGC,-0.114
TACAAAAA,0.232
AACATTAG,-0.0325
CGTCACAC,-0.0397
CAGCAGGG,-0.147
CCCTCCAC,-0.0933
GATATCCA,0.183

Following part.

Sequence | PBM E-score
GAGTGACC | -0.0639
AAGGGCAG | -0.162
ACAGTAAA | 0.098
GGATTGGA | 0.0959
CGACTTAC | -0.0271
GCGTAACC | 0.0286
ATGGTTAC | 0.0735
CGCCACCA | -0.28
CATATAGC | 0.164
TATAACGA | 0.172
ATCGGCTA | 0.0195
CCCACCTA | -0.0442
ACGAGTGC | -0.119
ACTAAACC | -0.0367
CCGTTGAA | -0.199
CAGAATCC | -0.0177
TCTGGTAA | 0.126
GTACCGAC | -0.159
AGAACTCT | -0.0917
CGATAGTC | -0.0397
CGTGGCAA | -0.207
TCATTTAA | 0.167
CCACACCA | 0.165
AGGCACCG | -0.204
GAGAGGCA | -0.157

Sequence | PBM E-score
AAGTAAAC | 0.113
GTCGCCAC | -0.242
ATGGATAC | 0.0771
AAACAAAG | 0.135
AATCGCAA | 0.119
CACATCTG | -0.0646
CCTTCGTA | -0.0406
CTTTCGGC | -0.195
TAAGCTAA | 0.222
AGTACGGG | -0.115
ATACCGGC | 0.0471
CTGTTTAA | 0.0642
TTGATAAA | 0.187
ATAACGGG | 0.0198
GACAAGTC | -0.226
ATGAATCA | 0.16
CCGTATCA | 0.036
GCTAATAC | 0.153
CTCTTCCA | -0.124
